The values that follow come from PMC12630686, “A degron-mimicking molecular glue drives CRBN homo-dimerization and degradation” (Nature Communications, 2025).

Chains of the proteins cited; added tags and fusions are not shown. Lines headed by an entry give the natural chain unless they say otherwise; changes in a name come on top. A line that says so, or that is headed by a name, gives the form on record, which may keep a tag or linker.
UniProt Q96SW2: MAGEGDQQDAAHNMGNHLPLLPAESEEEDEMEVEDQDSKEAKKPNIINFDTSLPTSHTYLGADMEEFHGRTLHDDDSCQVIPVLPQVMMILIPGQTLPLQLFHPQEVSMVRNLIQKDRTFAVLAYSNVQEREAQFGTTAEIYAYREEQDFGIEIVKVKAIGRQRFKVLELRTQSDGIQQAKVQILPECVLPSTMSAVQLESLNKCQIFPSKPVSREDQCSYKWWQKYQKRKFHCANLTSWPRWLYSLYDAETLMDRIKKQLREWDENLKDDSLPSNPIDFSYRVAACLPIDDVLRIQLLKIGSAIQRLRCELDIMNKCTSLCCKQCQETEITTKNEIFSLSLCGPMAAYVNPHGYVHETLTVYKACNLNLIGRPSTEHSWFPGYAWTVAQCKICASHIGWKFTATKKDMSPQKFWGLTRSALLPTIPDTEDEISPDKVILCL
hCRBN-NanoLuc with a 191-248 aa deletion (Trunc) (Q96SW2, form named): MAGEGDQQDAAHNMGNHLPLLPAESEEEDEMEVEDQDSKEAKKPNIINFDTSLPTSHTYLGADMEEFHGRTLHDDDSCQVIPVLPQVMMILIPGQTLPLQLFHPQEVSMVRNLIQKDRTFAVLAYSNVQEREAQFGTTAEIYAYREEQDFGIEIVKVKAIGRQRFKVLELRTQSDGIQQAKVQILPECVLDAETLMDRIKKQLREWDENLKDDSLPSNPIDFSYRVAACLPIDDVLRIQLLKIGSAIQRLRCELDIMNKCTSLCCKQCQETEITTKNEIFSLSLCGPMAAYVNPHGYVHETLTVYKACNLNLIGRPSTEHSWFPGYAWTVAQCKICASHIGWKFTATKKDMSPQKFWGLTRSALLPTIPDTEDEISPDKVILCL
UniProt Q8C7D2: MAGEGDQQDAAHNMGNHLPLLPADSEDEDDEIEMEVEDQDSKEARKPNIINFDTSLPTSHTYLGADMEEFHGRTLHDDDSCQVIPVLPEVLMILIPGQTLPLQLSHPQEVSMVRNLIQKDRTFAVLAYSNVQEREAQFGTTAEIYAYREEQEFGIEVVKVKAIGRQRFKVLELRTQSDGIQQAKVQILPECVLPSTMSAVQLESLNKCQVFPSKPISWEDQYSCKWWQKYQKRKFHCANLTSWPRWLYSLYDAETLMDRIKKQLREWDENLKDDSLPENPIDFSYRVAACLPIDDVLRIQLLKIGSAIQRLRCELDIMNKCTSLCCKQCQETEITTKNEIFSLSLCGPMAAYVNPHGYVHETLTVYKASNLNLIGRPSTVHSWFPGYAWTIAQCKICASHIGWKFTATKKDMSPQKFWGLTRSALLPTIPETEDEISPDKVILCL

These are yes or no findings as the source states them, for the method shown. Binding seen in cells or lysates may run through a third protein.

Assay [1] concerns the target CRBN-NanoLuc W386A (human) (UniProt Q96SW2). Put plainly: FRET or BRET; NanoBRET in HEK293T cells transfected with HaloTag-CRBN and CRBN-NanoLuc plasmids at 10:1; HaloTag NanoBRET 618 ligand overnight; MRT-31619 in serial dilution for 3 h; ratio corrected for background and normalised to DMSO; in one condition 20 uM lenalidomide 1 h before (interaction diminished). On the technique in general: BRET reads energy transfer from a luciferase to a nearby fluorophore.

Assay [2] concerns the target hCRBN-NanoLuc with a 191-248 aa deletion (Trunc) (human) (UniProt Q96SW2). Described as above.

Take “HaloTag-CRBN W386A (from UniProt Q96SW2 1-442)”: the binding entry in assay [1] is listed as “no binding”.

Turning to “HaloTag-mouse CRBN (wild type) (from UniProt Q8C7D2 1-445)”, the binding entry in assay [2] is given as “no binding”.
